Values from PubChem BioAssay AID1259254 (NCATS, 2017).
The whole screen tested about 59,000 reagents; shown is an unselected part. In the full data, about 1,550 (2.6%) got an active call. 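G2 share is only a proxy for re-replication; each gene was hit by three separate siRNAs, and active genes were retested.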 The numbers tell different reagents against one gene apart. Further read-outs or replicates are left out here. The record does not give: the amount of reagent.

- Purpose: 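Finding genes that stop cells copying their DNA twice in one cycle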 (primary screen)
- System: human HCT116 colorectal cancer cells
- Knock-down reagent: single siRNA against human genes
- Timing: 3 days
- Read-out: 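Nuclei stained with Hoechst and imaged; cell-cycle phase assigned by DNA content; G2 share scaled per plate, non-targeting siRNA 0%, GMNN siRNA 100%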
- Scale: G2 robust z-score: higher = more G2 cells, more excess DNA replication
- Call rule: 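Active siRNAs have a G2 robust z of 5 or more median absolute deviations over the median, which in these data means about 38% or higher of GMNN control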

After knock-down of GPT2 #1 the results were G2 robust z-score -0.28; inactive.
Against GPT2 #2, the values are G2 robust z-score 2.77; inactive.
Against GPT2 #3 the deposit lists G2 robust z-score 0.087; inactive.
Knock-down of TLE6 #1 resulted in: G2 robust z-score -0.588; inactive.
TLE6 #2 gave G2 robust z-score -0.33; inactive.
After knock-down of TLE6 #3, the screen gave G2 robust z-score 0.826; inactive.
Silencing of ZNF133 #1 came out at: G2 robust z-score -0.997; inactive.
For ZNF133 #2 the deposit lists G2 robust z-score 0.649; inactive.
After knock-down of ZNF133 #3, the screen gave G2 robust z-score -0.369; inactive.
Knock-down of ENPP5 #1 came out at: G2 robust z-score -1.22; inactive.
ENPP5 #2 scored G2 robust z-score -0.433; inactive.
ENPP5 #3 gave G2 robust z-score 5.24; active.
After knock-down of NTRK1 #1, the screen gave G2 robust z-score 0.264; inactive.
With knock-down of NTRK1 #2, the screen gave G2 robust z-score -0.369; inactive.
NTRK1 #3 scored G2 robust z-score -1.04; inactive.

2 of these entries, reformatted.
{"Target gene": "GPT2", "reagent": 2, "G2 robust z-score": 2.77, "Call": "inactive"}
{"Target gene": "GPT2", "reagent": 3, "G2 robust z-score": 0.087, "Call": "inactive"}

Next entries:
With knock-down of C3P1 #1, the record shows G2 robust z-score -1.37; inactive.
Against C3P1 #2 the deposit lists G2 robust z-score -0.774; inactive.
After knock-down of C3P1 #3, the screen gave G2 robust z-score -0.365; inactive.
SHLD2 #1 gave G2 robust z-score 1.14; inactive.
With knock-down of SHLD2 #2, the screen gave G2 robust z-score -0.758; inactive.
With knock-down of SHLD2 #3 the results were G2 robust z-score 1.08; inactive.
Knock-down of ITGB5 #1 gave: G2 robust z-score 15.1; active.
Knock-down of ITGB5 #2 came out at: G2 robust z-score 17.2; active.
With knock-down of ITGB5 #3 the results were G2 robust z-score 10.4; active.
